AC50 and cell number change data for 59 compounds are collected here from PubChem BioAssay AID2685 (National Center for Advancing Translational Sciences (NCATS), 2010).

Each structure is given as a SMILES string. Some of the results follow. Shown are side measurements of this screen, not its main read-out; they come without a call. Compounds called inactive in the main read-out are mostly missing here. Potencies come from curve fits of mixed quality, noted in brackets. Where a SMILES comes first, the peptide text is derived from it. [ ]: non-standard residue; d: D form. The star is where a group is joined. Hyp = O=C(O)[CH]1C[CH](O)CN1; Cbz = O=C(OCc1ccccc1)*; OBn = c1ccc(CO*)cc1

The assay in a line: qHTS Assay for Lipid Storage Modulators in Drosophila S3 Cells.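 As to cell number change: cells counted by Cell Tracker Red CMTPX staining in the red channel.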 The conditions noted are these: BODIPY lipid droplet fluorescence, 18-24 h; for cell number change: measured here: cell count max response, cells fed with added oleic acid. The method in brief:
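Laser-scanning cytometry quantifies lipid droplet accumulation (500–530 nm total intensity; droplet/cell object ratio) in oleic acid-fed (400 uM added) Drosophila S3 cells treated with a concentration series. 20 uM Triacsin C defined 100% inhibition.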

Setting [1] is: measured here: lipid fluorescence (Fed channel) AC50, cells fed with added oleic acid.
Setting [2] is: measured here: cell number channel AC50, cells fed with added oleic acid.

In the case of `CCN(CC)CCCNC(=O)c1[nH]c(C)c(C(=O)NC2CCCCC2)c1C`, the half-maximal activity concentration (AC50) under setting [1] is 20600 nM [falling, partial curve].
Turning to `CCC1(CC)NC(=O)N(CC(=O)OCn2nnc3ccccc3c2=O)C1=O`, the cell number change is -30%. In addition, the AC50 under setting [2] is 461 nM [falling, partial curve, poor fit].
As to `Cc1[nH]c(C)c(S(=O)(=O)Nc2cccc(Cl)c2C)c1C(=O)N1CCCCC1`, the cell number change was -2.75%. For the same compound, the concentration at half-maximal activity (AC50) under setting [1] was 8200 nM [falling, partial curve, poor fit].
Consider `CCOc1cc(C(=O)NC(CC(=O)O)c2ccc(OC3CCCC3)cc2)cc(OCC)c1OCC` (stereo unspecified), for which the cell number change came out at 24.2%. The AC50 under setting [1] is 580 nM [falling, full curve].
As for `O=C(COc1ccc(-c2ccccc2)cc1)NNC(=O)NC1CCCCC1`, the cell number change was found to be 21.4%. Further, the half-maximal activity concentration (AC50) under setting [1] was 29100 nM [rising, single point].
As to `CCN(C(=O)COC(=O)C1CCN(S(=O)(=O)c2ccc(C)c(C)c2)CC1)C1CCS(=O)(=O)C1` (stereo unspecified), the cell number change was -11.1%. Also, the half-maximal activity concentration (AC50) under setting [1] is 5800 nM [falling, full curve, poor fit].
For the compound `COc1ccc(NC(=O)C2CCC(N3C(=O)C4CCCCC4C3=O)CC2)cc1` (stereo unspecified), the AC50 under setting [1] was 2310 nM [rising, full curve].
`Cc1cc(/C=C2/NC(=O)NC2=O)c(C)n1-c1cccnc1`: the cell number change is 13.8%. Further, the concentration at half-maximal activity (AC50) under setting [1] was 8200 nM [rising, partial curve].
Take `CC1(C)CC(=O)C2=C(C1)OC1=C(C(=O)CC(C)(C)C1)C2c1ccccc1`: the cell number change is -3.34%. Further, the concentration at half-maximal activity (AC50) under setting [1] was 820 nM [falling, full curve, poor fit].
As for `Cc1ccc(S(=O)(=O)c2nc(Nc3ccccc3N3CCOCC3)sc2Cl)cc1`, the cell number change is -7.81%. Also, under setting [1], the half-maximal activity concentration (AC50) is 130 nM [falling, full curve, poor fit].
As to `COc1ccc(CCNC(=O)Cn2cnc3scc(-c4ccccc4)c3c2=O)cc1OC`, the cell number change is -12%. Besides, the half-maximal activity concentration (AC50) under setting [1] was 820 nM [falling, full curve].
With `COc1ccc(OC)c(NC(=O)c2cccc3c2C(=O)N(C2CCCCC2)C3)c1`, the cell number change was -12.6%.
On to `COc1ccc(C2/C=C\CN(S(=O)(=O)c3ccc(-c4ccccc4)cc3)CC(=O)N2Cc2ccc(F)cc2)cc1` (stereo unspecified), for which the cell number change was found to be 16.5%. In addition, under setting [1], the half-maximal activity concentration (AC50) was 1030 nM [rising, full curve, poor fit].
With `CC(=O)Nc1nc(-c2ccc(Cl)cc2)ns1`, the cell number change was 21.6%. Further, under setting [2], the concentration at half-maximal activity (AC50) is 2060 nM [rising, single point].
As for `O=C(Nc1ccc2c(c1)OCCO2)c1ccccc1F`, the cell number change is -5.05%. In addition, the AC50 under setting [2] is 1300 nM [rising, partial curve]. In addition, under setting [1], the AC50 is 461 nM [rising, single point].
`Cn1c(=O)c2ncn(CC(=O)NC3CCCCCC3)c2n(C)c1=O`: the cell number change was 21.9%. In addition, the AC50 under setting [1] is 18400 nM [rising, partial curve, poor fit].
Regarding `COc1ccc2oc(C(=O)NCCN3CCOCC3)c(C)c2c1OC`, the cell number change stood at 19.5%. For the same compound, under setting [1], the AC50 is 651 nM [rising, single point].
On to `Cc1cccc(C(=O)NCCc2nnc(SCC(=O)Nc3nc(C)cs3)n2C)c1`, for which the AC50 under setting [1] is 6510 nM [falling, single point].
As for `CC1CCN(S(=O)(=O)c2ccc3c(c2)c(=O)c(C(=O)N2CCCCC2)cn3C)CC1`, the cell number change is -9.74%.
On to `COc1ccc(NC(=O)CSc2nnc3c4c(nc(-c5ccccc5)n23)CC(C)(C)OC4)cc1`, for which the cell number change is -1.25%. Further, the AC50 under setting [1] is 14600 nM [falling, single point].
`O=C(NCC(=O)N1CC(O)CC1C(=O)N1CC(O)CC1C(=O)OCc1ccccc1)OCc1ccccc1` (stereo not drawn) (Cbz-Gly-[Hyp]-[Hyp]-OBn; configuration not given here): the cell number change is -35.4%. In addition, the concentration at half-maximal activity (AC50) under setting [2] is 1840 nM [falling, partial curve]. Moreover, under setting [1], the AC50 was 51.7 nM [falling, full curve, poor fit].
`CCC(NS(=O)(=O)c1ccc(C)cc1)C(=O)N1CCOCCOCCOCCOCC1` (stereo unspecified): the cell number change was -10.5%. Under setting [1], the AC50 was 35500 nM [rising, single point].
With `COC(=O)C1C2CCC(C2)C1C(=O)OCC(=O)c1ccc(C)cc1` (stereo unspecified), the cell number change amounted to 2.16%.
For the compound `O=C(NCCN1CCCC(O)C1)c1cc(COc2ccc(F)cc2Cl)on1` (stereo unspecified), the cell number change is 11.3%. The AC50 under setting [2] was 2060 nM [rising, single point].
As for `Cc1cc(=O)oc(C)c1C(=O)NCCCN1C(C)CCCC1C` (stereo unspecified), the cell number change was -15.9%.
Take `CSc1nsc(SCC(=O)Nc2ccccc2C(=O)O)n1`: the cell number change was -5.13%. Moreover, the half-maximal activity concentration (AC50) under setting [1] was 116 nM [falling, single point].
For `c1ccc(-n2nnnc2SCc2cccc3nsnc23)cc1`, the cell number change is 26.8%. The AC50 under setting [1] is 6510 nM [rising, partial curve].
Take `O=C(CN1CCCCC1)NCCNC(=O)CN1CCCCC1`: the cell number change was -36.8%. In addition, the AC50 under setting [2] is 29100 nM [falling, single point]. Further, the AC50 under setting [1] is 20600 nM [falling, single point].
For `Cc1sc2ncn(CC(=O)NCCc3ccccc3)c(=O)c2c1C`, the cell number change was 37.2%.
Turning to `Cc1ccc(C(=O)/C=C/Nc2cccc([N+](=O)[O-])c2)o1`, the cell number change is 86.5%. Under setting [2], the AC50 is 16400 nM [rising, partial curve]. For the same compound, the AC50 under setting [1] was 3660 nM [rising, single point].
As to `Cc1cccc(C(=O)Oc2ccc(/C=N/NC(=O)c3cc(O)cc(O)c3)cc2)c1`, the cell number change is -31.7%. Besides, under setting [2], the concentration at half-maximal activity (AC50) is 23100 nM [falling, single point].
With `CCc1ccc(OCCOCC(O)CN2CCN(Cc3ccc(Cl)cc3)CC2)cc1` (stereo unspecified), the cell number change was -5.63%. Moreover, the concentration at half-maximal activity (AC50) under setting [1] was 23100 nM [falling, partial curve].
`COc1ccc(NC(=O)Nc2c(C)n(C)n(-c3ccccc3)c2=O)cc1OC`: the cell number change came out at 15.3%.
`CCOC(=O)Cc1cc(OC)c(OC)cc1Cc1cc(OC)c(OC)cc1CC(=O)OCC`: the cell number change is -24%. The concentration at half-maximal activity (AC50) under setting [2] was 25.9 nM [falling, full curve, poor fit].
`CN(C)CCCn1c(SCC(=O)N2CC(=O)Nc3ccccc32)nc2ccccc2c1=O`: the cell number change is -19%. Also, under setting [1], the AC50 is 92 nM [rising, partial curve, poor fit].
Turning to `N#Cc1ccc(CSc2nnc(-c3ccncc3)o2)cc1`, the cell number change is -7.45%. Under setting [1], the concentration at half-maximal activity (AC50) was 6510 nM [rising, partial curve, poor fit].
`CCOc1ccc(Cc2onc3c2C(=O)CCC3)cc1OCC`: the cell number change turned out to be 47%.
Consider `CS(=O)(=O)N(CC(=O)Nc1cccc([N+](=O)[O-])c1)c1ccccc1`, for which the cell number change was determined as 92.4%. The half-maximal activity concentration (AC50) under setting [2] was 29100 nM [rising, single point]. In addition, the concentration at half-maximal activity (AC50) under setting [1] is 25900 nM [rising, single point].
Take `CCN(CC)C(=O)C1CCCN(Cc2ccc(OC)c(C)c2C)C1` (stereo unspecified): the cell number change was -126%. Further, the AC50 under setting [2] was 20600 nM [falling, partial curve]. Also, under setting [1], the AC50 is 23100 nM [falling, partial curve].
In the case of `CCOc1cccc(C2C(C(=O)c3ccco3)=C(O)C(=O)N2c2nnc(C)s2)c1` (stereo unspecified), the cell number change stood at 0.493%. The AC50 under setting [1] was 2060 nM [falling, partial curve, poor fit].
`COc1ccc(S(=O)(=O)Nc2ccccc2Cl)cc1NC(C)=O`: the cell number change came out at 1.69%. Moreover, the AC50 under setting [2] is 6510 nM [falling, single point]. For the same compound, the half-maximal activity concentration (AC50) under setting [1] was 130 nM [falling, full curve, poor fit].
As to `O=C1CCCN1CCCNC(=S)Nc1ccc(Cl)cc1Cl`, the cell number change is 9.63%.
In the case of `COc1ccccc1Oc1coc2cc(OCC(N)=O)ccc2c1=O`, the cell number change came out at 16.2%. Besides, the AC50 under setting [1] was 206 nM [falling, single point].
As to `O=c1c2ccccc2cnn1Cc1n[nH]c(=S)n1C1CC2CCC1C2` (stereo unspecified), the cell number change turned out to be 20.3%. Further, the AC50 under setting [2] is 51.7 nM [rising, full curve, poor fit]. The half-maximal activity concentration (AC50) under setting [1] is 32.6 nM [rising, full curve].
Regarding `O=C(CN1C(=O)c2ccccc2C1=O)OCc1nc2ccsc2c(=O)[nH]1`, the cell number change was -10.7%. For the same compound, the AC50 under setting [1] was 29100 nM [rising, single point].
Take `O=S(=O)(c1ccccc1)[C@@]1(c2ccc(Br)cc2)C[C@@H]2ON=C(c3ccccc3)[C@@H]2C1`: the cell number change is -4.55%. For the same compound, the AC50 under setting [1] is 164 nM [falling, full curve, poor fit].
For the compound `CCc1cc(=O)oc2cc(C)cc(OC(=O)c3ccco3)c12`, the cell number change is -4.43%. Under setting [1], the AC50 is 2310 nM [falling, partial curve].
`O=C(CSc1ccccn1)Nc1ccc2ccccc2c1`: the cell number change stood at 25%. The half-maximal activity concentration (AC50) under setting [1] was 20600 nM [rising, partial curve].
In the case of `Nn1c(Cc2ccccc2)n[nH]c1=S`, the cell number change was -2.22%. For the same compound, the concentration at half-maximal activity (AC50) under setting [1] is 116 nM [falling, full curve, poor fit].
For the compound `CN(C(=O)Cn1cc(C(F)(F)F)cc(Cl)c1=O)C1CCS(=O)(=O)C1` (stereo unspecified), the cell number change is -1.57%. Under setting [1], the half-maximal activity concentration (AC50) was 18400 nM [falling, single point].
Regarding `O=[N+]([O-])c1ccc(F)cc1OCc1cccc(S(=O)(=O)N2CCOCC2)c1`, the cell number change amounted to 24.4%. In addition, the concentration at half-maximal activity (AC50) under setting [2] was 651 nM [rising, full curve]. Besides, the AC50 under setting [1] is 1460 nM [rising, full curve].
As to `NC(=O)C1Cc2ccccc2CN1S(=O)(=O)c1cccs1` (stereo unspecified), the cell number change is -52.4%. Moreover, the AC50 under setting [2] was 920 nM [falling, full curve]. Under setting [1], the AC50 was 1030 nM [falling, full curve].
As to `COC(=O)c1cc2c(cc1Cl)N1CCCCCC1=NS2(=O)=O`, the cell number change was -24.5%. In addition, under setting [2], the AC50 is 2590 nM [falling, single point].
As for `O=[N+]([O-])c1ccc(S(=O)(=O)N(CC(O)CN2CCCCC2)c2ccccc2)cc1` (stereo unspecified), the cell number change was 20.5%. For the same compound, the half-maximal activity concentration (AC50) under setting [1] was 164 nM [rising, full curve].
In the case of `Cn1ccnc1C(=O)c1ccc(NN)c([N+](=O)[O-])c1`, the cell number change came out at 44.5%. Further, the AC50 under setting [2] was 18400 nM [rising, single point].
As to `CCc1cccc2c(C(=O)COC(=O)c3nccnc3N)c[nH]c12`, the cell number change was -3.58%.
On the same count and under the same terms, next, `Fc1cccc(CNc2ncnc3ccc(-c4ccoc4)cc23)c1`: 26.3%.
For the compound `CCOC(=O)C1CCC(CN(Cc2ccccc2)S(=O)(=O)c2ccc([N+](=O)[O-])cc2)CC1` (stereo unspecified), the cell number change was 16.4%. Also, under setting [2], the half-maximal activity concentration (AC50) is 1840 nM [rising, full curve, poor fit].
As for `CCSc1nc(C)cc(C)c1S(=O)(=O)c1ccccc1C`, the cell number change was -50.9%. The AC50 under setting [2] was 164 nM [falling, full curve]. Besides, the half-maximal activity concentration (AC50) under setting [1] is 8200 nM [falling, partial curve, poor fit].
